# Assay results as given in PubChem BioAssay AID504648 (National Center for Advancing Translational Sciences (NCATS), 2011).
# Screen size: about 390,000 compounds; about 610 (0.16%) were called active. Inconclusive results, whose numbers are uncertain, are shown with a selection of clear calls. Calls follow the shape of the dose curve; as a rule, active = well fitted inhibition curve with a large enough effect; inconclusive = small, poorly fitted or top-dose-only effect, or effect the other way, or another doubt; inactive = no such curve, though single readings can be large or run the other way. Where the call is inconclusive, the potency comes from a doubtful curve fit.
# Test: Nrf2 qHTS screen for inhibitors: counterscreen for cytotoxicity
# Details: A549 ARE-Fluc cells, CellTiter-Fluor viability, 18-24 h; series mostly up to 46 µM
# Summary of the method: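 Cytotoxicity counterscreen: CellTiter-Fluor fluorescence was measured in A549 ARE_Fluc cells after 18-24 h of compound exposure in a concentration series. The subsequent BugLite luminescent read reports ARE-luciferase activity.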
# Potency is read from the fitted curve at half-maximal effect.
row,Structure (SMILES),Potency
1,CC(=O)OC1CCC2C3CCC4OC(=O)CCC4C3CCC12C (centres undefined),"inconclusive: 2.91 µM [falling, partial curve, poor fit]"
2,Cn1c(=O)c2c(-c3ccccc3)n(-c3cccc(C#N)c3)cc2n(C)c1=O,inactive
3,CCS(=O)(=O)c1nc(S(=O)(=O)c2ccc(Cl)cc2)c(NCc2ccc(Cl)cc2)s1,"inconclusive: 3.66 µM [activator, full curve, poor fit]"
4,CCOc1ccc2oc(C(=O)N(C)CC(=O)Nc3ccc(OCC)c(OCC)c3)c(C)c2c1,inactive
5,Cn1nc(-c2ccc(F)cc2)nc2c(=O)n(C)c(=O)nc1-2,active: 2.91 µM
6,COc1ccc(CCNS(=O)(=O)c2cccc(C)c2)cc1OC,"inconclusive: 32.6 µM [activator, partial curve, poor fit]"
7,O=[N+]([O-])c1c(NCCCO)cc(Sc2nc3ccccc3s2)c2nonc12,"inconclusive: 29.1 µM [falling, single point]"
8,CN(C)CCCNc1c2ccccc2nc2ccccc12,active: 8.2 µM
9,Cc1ccc(NC(=O)Cn2cc(S(=O)(=O)Cc3ccccc3)c3ccccc32)cc1C,"inconclusive: 29.1 µM [falling, partial curve, poor fit]"
10,C=CCc1cccc(/C=N/NC(=O)CNc2ccccc2OC)c1O,"inconclusive: 16.4 µM [falling, partial curve, poor fit]"
11,CCc1ccc(S(=O)(=O)c2cn(C)c3ccc(C)cc3c2=O)cc1,inactive
12,O=C(CSc1ncc(-c2ccccc2)[nH]1)Nc1cccc(O)c1,inactive
13,NC(N)=NS(=O)(=O)c1ccc(N/C=C/C(=O)c2ccc(Cl)c(Cl)c2)cc1,inactive
14,CC(C)Cn1c2ccccc2c2cc(C(=O)O)ccc21,inactive
15,Cc1cc(C)cc(-n2ncc3c2CCCC3NC(=O)c2cc(C)n(C)n2)c1 (centres undefined),inactive
16,CN1CCC/C1=C/C=C1\SC(=S)NC1=O,"inconclusive: 25.9 µM [falling, partial curve, poor fit]"
17,COc1ccc(N(CC(=O)Nc2cc(Cl)ccc2OC)S(=O)(=O)c2c(C)noc2C)cc1,"inconclusive: 7.31 µM [falling, partial curve, poor fit]"
18,Cc1cc2c(=Cc3ccc(N(C)C)cc3)c3ccccc3n2[n+]1C,active: 16.4 µM
19,O=c1[nH]c2cc([N+](=O)[O-])c(NCCO)c([N+](=O)[O-])c2[nH]1,active: 13 µM
20,O=C(NCc1ccccc1)C1=C[C@@H](C2CCCCC2)C[C@@H](OCc2ccc(CO)cc2)O1,"inconclusive: 5.8 µM [falling, partial curve, poor fit]"
21,COc1cc(C(=O)Nc2ccc(Oc3ncnc4sc(-c5ccccc5)cc34)cc2)cc(OC)c1OC,inactive
22,Cc1ccc2[nH]c3c(c2c1)CN(C(=O)CN1c2ccc(F)cc2CCC1C)CC3 (centres undefined),"inconclusive: 29.1 µM [falling, single point]"

# In the list so far, these have a nitro group on carbon:
row,Structure (SMILES),Potency
7,O=[N+]([O-])c1c(NCCCO)cc(Sc2nc3ccccc3s2)c2nonc12,"inconclusive: 29.1 µM [falling, single point]"
19,O=c1[nH]c2cc([N+](=O)[O-])c(NCCO)c([N+](=O)[O-])c2[nH]1,active: 13 µM

# Going on with the list.

row,Structure (SMILES),Potency
1,O=C1C(Nc2cccc(O)c2)=C(N2CCCCC2)C(=O)c2ccccc21,"inconclusive: 29.1 µM [falling, single point]"
2,Cc1cnc(C=NNC(N)=S)c2cccc(N)c12,"inconclusive: 18.4 µM [falling, single point]"
3,Cc1ccc(-c2nc(-c3cccs3)c(-c3cccs3)[nH]2)cc1,inactive
4,Cc1ccc(Cn2ncc3c(N4CCN(c5ccccc5C)CC4)ncnc32)cc1,"inconclusive: 9.2 µM [falling, partial curve, poor fit]"
5,O=C(COc1cccnc1[N+](=O)[O-])Nc1ccc2c(c1)CCC2,inactive
6,C=CCC[C@@H](Cc1ccc(F)cc1)C(=O)OC[C@@H](NC(=O)[C@@H](CC=C)CC(=O)N(CCO)Cc1ccccc1)c1ccccc1,"inconclusive: 29.1 µM [falling, single point]"
7,Clc1ccccc1/C=N/NC1=Nc2cccc3cccc1c23,"inconclusive: 14.6 µM [falling, single point]"
8,C=CCN(C(C(=O)OC)C(C)C)S(=O)(=O)C=C (centres undefined),inactive
9,CC(C)COC(=O)NCC12C=CC(O1)C1C(=O)N(c3ccc(Cl)cc3)C(=O)C12 (centres undefined),inactive
10,CCNC(=S)Nc1ccc(Cl)c([N+](=O)[O-])c1,"inconclusive: 16.4 µM [falling, partial curve, poor fit]"
11,Cc1cccc(NCCC(=O)c2ccc([N+](=O)[O-])cc2)c1C,inactive
12,O=C(Nc1ccccc1)c1cccc(S(=O)(=O)NCc2ccco2)c1,"inconclusive: 29.1 µM [falling, single point]"
13,Cc1cc(-n2c(C)cc(C(=O)CSc3nnnn3-c3ccc(Cl)cc3)c2C)no1,"inconclusive: 20.6 µM [falling, single point]"
14,CCC(=O)Nc1ccc(C(=O)CSc2nnc(CNc3ccc(Cl)cc3)o2)cc1OC,"inconclusive: 2.91 µM [activator, single point]"
15,COc1ccc(-n2c(C)cc(C(=O)COC(=O)c3ccc(O)cc3O)c2C)cc1,"inconclusive: 18.4 µM [falling, single point]"
16,Cc1c(Cl)cccc1-n1c(SCC(=O)N2CCC(C(=O)O)CC2)nnc1-c1ccncc1,"inconclusive: 18.4 µM [falling, partial curve, poor fit]"
17,CCC1Oc2ccccc2N(CC(=O)NCc2ccccc2)C1=O (centres undefined),inactive
18,CCOc1ccc(/C=C2\SC(=S)N(CCCC(=O)NCCCN3CCOCC3)C2=O)cc1,"inconclusive: 29.1 µM [falling, single point]"
19,COc1ccc(CCn2c(=N)c(C(=O)NC3CCCC3)cc3c(=O)n4ccccc4nc32)cc1,"inconclusive: 29.1 µM [falling, single point]"
20,O=C(NCCOc1ccccc1F)c1cc([N+](=O)[O-])ccc1N1CCOCC1,"inconclusive: 8.2 µM [falling, partial curve, poor fit]"
21,O=C(COC(=O)CSc1ccc(F)cc1)NCC1CCCCC1,"inconclusive: 0.731 µM [activator, full curve]"
22,O=S(=O)(c1ccc(-c2csc(=Nc3ccc(F)cc3)n2CCCCCCO)cc1)N1CCCC1,"inconclusive: 29.1 µM [falling, single point]"
